Laboratory results taken from patent US20120184020A1, “ENGINEERED MICROORGANISMS WITH ENHANCED FERMENTATION ACTIVITY” (Verdezyne, Inc., priority 2009, published 2012).

Experiment: Anti-His western blot of xylose isomerase constructs expressed in S. cerevisiae
Parameters: species or system Saccharomyces cerevisiae
Conditions: His-tagged constructs in p426GPD, S. cerevisiae BY4742

B1: Ruminococcus xylose isomerase: native xylose isomerase from Ruminococcus flavefaciens strain 17, SEQ ID NO: 31 (protein, listed as Ruminococcus flavefaciens)
chain: MEFFSNIGKIQYQGPKSTDPLSFKYYNPEEVINGKTMREHLKFALSWWHTMGGDGTDMFGCGTTDKTWGQSDPAARAKAKVDAAFEIMDKLSIDYYCFHDRDLSPEYGSLKATNDQLDIVTDYIKEKQGDKFKCLWGTAKCFDHPRFMHGAGTSPSADVFAFSAAQIKKALESTVKLGGNGYVFWGGREGYETLLNTNMGLELDNMARLMKMAVEYGRSIGFKGDFYIEPKPKEPTKHQYDFDTATVLGFLRKYGLDKDFKMNIEANHATLAQHTFQHELRVARDNGVFGSIDANQGDVLLGWDTDQFPTNIYDTTMCMYEVIKAGGFTNGGLNFDAKARRGSFTPEDIFYSYIAGMDAFALGFRAALKLIEDGRIDKFVADRYASWNTGIGADIIAGKADFASLEKYALEKGEVTASLSSGRQEMLESIVNNVLFSL
For B1, the “expression of xylose isomerase in yeast cells (western)” value was “expressed in both the soluble and insoluble fractions” and the “expression of xylose isomerase in yeast cells (western)” value (listed as wild type R. flavefaciens xylose isomerase) was “expressed in the soluble fraction”.
